# Test results taken from the supplement of paper PMC8728848.
# Some of the results follow.
# B1: AntigenI/IIA3VP1 (Streptococcus mutans), C9E3B4 (protein)
# chain: AANEADYQAKLTAYQTELARVQKANADAKAAYEAAVAANNAANAALTAENTAIKKRNADAKADYEAKLAKYQADLAKYQKDLADYPVKLKAYEDEQASIKAALAELEKHKNEDGNLTEPSAQNLVYDLEPNANLSLTTDGKFLKASAVDDAFSKSTSKAKYDQKILQLDDLDITNLEQSNDVASSMELYGNFGDKAGWSTTVSNNSQVKWGSVLLERGQSATATYTNLQNSYYNGKKISKIVYKYTVDPKSKFQGQKVWLGIFTDPTLGVFASAYTGQVEKNTSIFIKNEFTFYDEDGKPINFDNALLSVASLNREHNSIEMAKDYSGKFVKISGSSIGEKNGMIYATDTLNFKQGEGGSRWTMYKNSQAGSGWDSSDAPNSWYGAGAIKMSGPNNYVTVGATSATNVMPVSDMPVVPGKDNTDGKKPNIWYSLNGKIRAVNVPKVTKEKPTPPVKPTAPTKPTYETEKPLKPAPVAPNYEKEPTPPTRLEHHHHHH
# Columns and labels:
# Experiment in all cases: glycan array binding signal (z-score within array); higher = stronger binding
# Conditions in all cases: glycan notation: IUPAC condensed, linker removed
# [1] = biological target: Gal(b1-4)GlcNAc(b1-6)GalNAc
# Procedure, shortened: (§1)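 Glycan array data came from 3228 arrays in the Consortium for Functional Glycomics database, and only arrays with an available protein sequence were kept. Glycan names were put into IUPAC-condensed notation, and columns mapping to the same glycan were averaged. The binding signal is a within-array Z-score, averaged across arrays of one protein sequence run at different concentrations or buffers and across linkers. A negative Z-score can be read as non-binding.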
# [2] = biological target: Gal(b1-4)GlcNAc(b1-6)[Gal(b1-3)]GalNAc
# Procedure, shortened: as §1
# [3] = biological target: Gal(b1-4)GlcNAc(b1-6)[Gal(b1-4)GlcNAc(b1-3)]GalNAc
# Procedure, shortened: as §1
# [4] = biological target: Gal(b1-4)GlcNAc6P
# Procedure, shortened: as §1
# [5] = biological target: Gal(b1-6)Gal
# Procedure, shortened: as §1
# [6] = biological target: Gal3S(b1-3)GalNAc
# Procedure, shortened: as §1
# [7] = biological target: Gal3S(b1-3)GlcNAc
# Procedure, shortened: as §1
# [8] = biological target: Gal3S(b1-3)[Fuc(a1-4)]GlcNAc
# Procedure, shortened: as §1
# [9] = biological target: Gal3S(b1-4)Glc
# Procedure, shortened: as §1
# [10] = biological target: Gal3S(b1-4)Glc6S
# Procedure, shortened: as §1
# [11] = biological target: Gal3S(b1-4)GlcNAc
# Procedure, shortened: as §1
# [12] = biological target: Gal3S(b1-4)[Fuc(a1-3)]Glc6S
# Procedure, shortened: as §1
# [13] = biological target: Gal3S(b1-4)[Fuc(a1-3)]GlcNAc
# Procedure, shortened: as §1
# [14] = biological target: Gal3S(b1-4)[Fuc(a1-3)]GlcNAc6S
# Procedure, shortened: as §1
# [15] = biological target: Gal3S4S(b1-4)GlcNAc
# Procedure, shortened: as §1
# [16] = biological target: Gal3S6S(b1-4)GlcNAc
# Procedure, shortened: as §1
# [17] = biological target: Gal3S6S(b1-4)GlcNAc6S
# Procedure, shortened: as §1
# [18] = biological target: Gal4S(b1-4)GlcNAc
# Procedure, shortened: as §1
# [19] = biological target: Gal4S6S(b1-4)GlcNAc
# Procedure, shortened: as §1
# [20] = biological target: Gal6P(b1-4)GlcNAc
# Procedure, shortened: as §1
# [21] = biological target: Gal6S(b1-3)GlcNAc
# Procedure, shortened: as §1
# [22] = biological target: Gal6S(b1-3)GlcNAc6S
# Procedure, shortened: as §1
# [23] = biological target: Gal6S(b1-4)Glc
# Procedure, shortened: as §1
# [24] = biological target: Gal6S(b1-4)Glc6S
# Procedure, shortened: as §1
# [25] = biological target: Gal6S(b1-4)GlcNAc
# Procedure, shortened: as §1
# [26] = biological target: Gal6S(b1-4)GlcNAc6S
# Procedure, shortened: as §1
# [27] = biological target: GalNAc(a1-3)Gal
# Procedure, shortened: as §1
# [28] = biological target: GalNAc(a1-3)GalNAc
# Procedure, shortened: as §1
# [29] = biological target: GalNAc(a1-3)GalNAc(a1-3)Gal(a1-4)Gal(b1-4)GlcNAc
# Procedure, shortened: as §1
# [30] = biological target: GalNAc(a1-3)GalNAc(b1-3)Gal(a1-4)Gal(b1-4)Glc
# Procedure, shortened: as §1
# [31] = biological target: GalNAc(b1-3)Gal
# Procedure, shortened: as §1
# [32] = biological target: GalNAc(b1-3)Gal(a1-4)Gal(b1-4)GlcNAc
# Procedure, shortened: as §1
# [33] = biological target: GalNAc(b1-3)Gal(a1-4)Gal(b1-4)GlcNAc(b1-3)Gal(b1-4)Glc
# Procedure, shortened: as §1
# [34] = biological target: GalNAc(b1-3)Gal(a1-6)Gal(b1-4)Glc
# Procedure, shortened: as §1
# [35] = biological target: GalNAc(b1-3)GalNAc
# Procedure, shortened: as §1
# [36] = biological target: GalNAc(b1-3)GlcNAc
# Procedure, shortened: as §1
# [37] = biological target: GalNAc(b1-4)Gal(b1-4)Glc
# Procedure, shortened: as §1
# [38] = biological target: GalNAc(b1-4)GlcNAc
# Procedure, shortened: as §1
binder,measurement,setting,value
B1,glycan array binding signal (z-score),[1],-0.203
same,glycan array binding signal (z-score),[2],0.419
same,glycan array binding signal (z-score),[3],0.429
same,glycan array binding signal (z-score),[4],-0.924
same,glycan array binding signal (z-score),[5],-0.488
same,glycan array binding signal (z-score),[6],-1.05
same,glycan array binding signal (z-score),[7],-0.67
same,glycan array binding signal (z-score),[8],0.515
same,glycan array binding signal (z-score),[9],0.494
same,glycan array binding signal (z-score),[10],-0.822
same,glycan array binding signal (z-score),[11],0.444
same,glycan array binding signal (z-score),[12],3.68
same,glycan array binding signal (z-score),[13],-0.048
same,glycan array binding signal (z-score),[14],0.489
same,glycan array binding signal (z-score),[15],-0.165
same,glycan array binding signal (z-score),[16],0.603
same,glycan array binding signal (z-score),[17],0.436
same,glycan array binding signal (z-score),[18],-0.506
same,glycan array binding signal (z-score),[19],-1.14
same,glycan array binding signal (z-score),[20],-1.28
same,glycan array binding signal (z-score),[21],-0.029
same,glycan array binding signal (z-score),[22],0.363
same,glycan array binding signal (z-score),[23],-0.11
same,glycan array binding signal (z-score),[24],1.01
same,glycan array binding signal (z-score),[25],0.782
same,glycan array binding signal (z-score),[26],0.523
same,glycan array binding signal (z-score),[27],0.001
same,glycan array binding signal (z-score),[28],0.327
same,glycan array binding signal (z-score),[29],-0.516
same,glycan array binding signal (z-score),[30],-0.224
same,glycan array binding signal (z-score),[31],-0.411
same,glycan array binding signal (z-score),[32],0.73
same,glycan array binding signal (z-score),[33],-0.843
same,glycan array binding signal (z-score),[34],-1.06
same,glycan array binding signal (z-score),[35],1.37
same,glycan array binding signal (z-score),[36],-0.475
same,glycan array binding signal (z-score),[37],-0.825
same,glycan array binding signal (z-score),[38],0.185

# Random excerpt: 2 entries already listed, in no set order.
binder,measurement,setting,value
B1,glycan array binding signal (z-score),[37],-0.825
same,glycan array binding signal (z-score),[18],-0.506
